Binding data for one molecule are collected here from patent US20130149309A1.

No constants are given. Whether binding was seen depends on the method and setting. In cells and extracts the contact can be indirect. Some entries that bind do so weakly or less than the wild type. Sequences can lack the tags named with a protein.

Test [1] addresses T1, amyloid precursor protein C-terminal fragment (APP-CTF), P05067. Nature of the test: co-immunoprecipitation from HEK293 cells co-expressing NotchΔE-myc, APP-CTF and gSAP-16K-HA, both directions. Particulars: remark: other sources report otherwise.
The target of test [2] is T1, amyloid precursor protein C-terminal …. Put plainly: co-immunoprecipitation, HEK293 cells. Particulars: remark: other sources report otherwise.

B1: gSAP-16K-HA (16 KDa C-terminal fragment, amino acid sequence 733-854, of gSAP with a C-terminal HA tag), A4D1B5 733-854 (protein, human, UniProt A4D1B5 733-854, looked up, not shown: small tags and cut ends)
chain: RLMKDLDNTEKNEKLKFSIIVRLPPLIGQKICRLWDHPMSSNIISRNHVTRLLQNYKKQPRNSMINKSSFSVEFLPLNYFIEILTDIESSNQALYPFEGHDNVDAEFVEEAALKHTAMLLGL
Consider B1, for which the binding entry in test [1] and in test [2] was “binds” each time.
